# Laboratory results from article PMC4890047.
# The chains behind the UniProt entries cited, without tags or fusion partners.
# UniProt Q8B6J8: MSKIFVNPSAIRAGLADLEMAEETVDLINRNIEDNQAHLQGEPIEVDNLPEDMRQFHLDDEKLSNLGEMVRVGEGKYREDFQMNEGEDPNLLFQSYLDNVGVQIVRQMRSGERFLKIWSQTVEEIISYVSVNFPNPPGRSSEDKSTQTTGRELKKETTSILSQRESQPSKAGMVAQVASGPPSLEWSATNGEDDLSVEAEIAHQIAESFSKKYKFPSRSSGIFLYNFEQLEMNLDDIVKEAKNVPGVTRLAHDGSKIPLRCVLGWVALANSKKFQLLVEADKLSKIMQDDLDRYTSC
# Results are given in words; binding and its absence hold for the method and conditions named. Binding seen in cells or lysates may run through a third protein. Some results given as binding are weak or reduced against the parent protein; the word gives no strength.
# B1: Cdc37 expressed from pCI-neo-Cdc37 (protein, UniProt Q61081 1-379)
# chain: MVDYSVWDHIEVSDDEDETHPNIDTASLFRWRHQARVERMEQFQKEKEELDRGCRECKRKVAECQRKLKELEVAESDGQVELERLRAEAQQLRKEERSWEQKLEDMRKKEKNMPWNVDTLSKDGFSKSMVNTKPEKAEEDSEEAREQKHKTFVEKYEKQIKHFGMLHRWDDSQKYLSDNVHLVCEETANYLVIWCIDLEVEEKCALMEQVAHQTMVMQFILELAKSLKVDPRACFRQFFTKIKTADHQYMEGFKYELEAFKERVRGRAKLRIEKAMKEYEEEERKKRLGPGGLDPVEVYESLPEELQKCFDVKDVQMLQDAISKMDPTDAKYHMQRCIDSGLWVPNSKSGEAKEGEEAGPGDPLLEAVPKAGNEKDVSA
# Biological target: Flag-P (Flury) (Rabies virus strain HEP-Flury) (UniProt Q8B6J8)
# Experiment: co-IP
binder,measurement,value
B1,binding,binds
